## Primary screen of a compound library

By UniProt entry, the sequences of proteins in these tests, tags left out.
UniProt E9BF75, entry or part of it: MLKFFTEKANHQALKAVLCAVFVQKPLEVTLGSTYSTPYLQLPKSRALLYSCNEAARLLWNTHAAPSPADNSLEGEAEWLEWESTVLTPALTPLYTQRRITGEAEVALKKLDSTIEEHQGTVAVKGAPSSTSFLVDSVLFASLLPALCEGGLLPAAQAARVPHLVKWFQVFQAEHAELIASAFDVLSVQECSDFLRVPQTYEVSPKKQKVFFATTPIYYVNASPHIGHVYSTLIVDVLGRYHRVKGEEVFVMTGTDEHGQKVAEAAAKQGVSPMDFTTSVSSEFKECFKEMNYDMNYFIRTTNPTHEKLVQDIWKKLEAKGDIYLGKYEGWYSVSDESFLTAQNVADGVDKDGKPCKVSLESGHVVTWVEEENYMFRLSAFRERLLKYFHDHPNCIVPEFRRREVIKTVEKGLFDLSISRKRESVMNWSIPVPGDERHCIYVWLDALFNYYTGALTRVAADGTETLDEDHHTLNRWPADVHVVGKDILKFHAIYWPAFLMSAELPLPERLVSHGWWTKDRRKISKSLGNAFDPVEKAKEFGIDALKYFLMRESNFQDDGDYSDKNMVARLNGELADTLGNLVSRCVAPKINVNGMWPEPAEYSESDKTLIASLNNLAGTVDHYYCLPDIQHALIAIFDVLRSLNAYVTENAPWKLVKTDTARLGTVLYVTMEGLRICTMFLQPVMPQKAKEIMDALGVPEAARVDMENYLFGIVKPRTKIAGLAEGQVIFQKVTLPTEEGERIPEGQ

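Methionyl-tRNA synthetase (putative), Leishmania donovani (UniProt E9BF75). Primary screen of methionyl-tRNA synthetase; the read-out is not stated. The test concentration is not given. Values are per cent inhibition. About 68,000 compounds were tested under these conditions; 0.035% (about 24) showed 50% or more at least once.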

All values are in %. How 0% and 100% were set is not recorded. Most values in the screen are low, and negative values occur. The compounds are a random part of those screened.

| Compound | Inhibition |
|---|---|
| `Cc1nc(C(C)(C)NC(=O)Nc2ccncc2)no1` | 7.065 |
| `Cc1nc(CN(C)C2CCN(CCCOc3ccc(F)cc3)C2)no1` (stereo unspecified) | 11.48 |
| `CN1CCN(C(=O)c2cnsn2)c2ccc(F)cc21` | 10.03 |
| `COCc1ccccc1CNCc1c(C(C)C)nn(C)c1N(C)C` | 13.16 |
| `Cc1nc(CN2CCCC(NCc3ccc(Cl)s3)C2)no1` (stereo unspecified) | 16.24 |
| `Cn1c(-c2ccccc2Cl)nc2cc(C(=O)NCC3(C)COC3)cnc21` | 14.23 |
| `COc1ccccc1C(O)CNC(=O)NCc1cc[nH]n1` (stereo unspecified) | 16.87 |
| `O=C(C1CCCC1)N1CC2(CCN(C3COC3)C2)Cc2ccccc21` (stereo unspecified) | 3.429 |
| `CN1CCCCC1CCC(=O)NCCCn1nccc1C1CC1` (stereo unspecified) | 13.43 |
| `CN(C)C(=O)CN(C)C(=O)c1cnc(Cc2ccc(F)cc2)s1` | 15.61 |
| `CCn1c(C2CCCN(C(=O)c3ccc[nH]3)C2)nn(CCN(C)C)c1=O` (stereo unspecified) | 11.37 |
| `CCCn1nnnc1CSCc1cn2c(C)cccc2n1` | 11.24 |
| `CC(C)(C)c1csc(CNC(=O)C2NCCc3[nH]cnc32)n1` (stereo unspecified) | 11.06 |
| `CCN1CCN(C)C2(CCN(Cc3cccc(C)n3)CC2)C1=O` | 9.444 |
| `Cn1cnnc1SC1CCc2ccccc2NC1=O` (stereo unspecified) | 8.499 |
| `O=C(O)[C@@H]1CN(C(=O)CCN2CCCCC2)C[C@H]1c1ccccc1` | 8.125 |
| `COCc1nn(CC2CC2)c2c1CN(Cc1cncn1C)CC2` | 6.667 |
| `COc1ccccc1C(=O)N1CCN(CCc2scnc2C)CC1` | 8.156 |
| `CC(=O)NC(Cc1c[nH]c2cc(F)ccc12)C(=O)Nc1nonc1C` (stereo unspecified) | 9.023 |
| `COC(=O)[C@H](C)NC(=O)Cc1c(C)nc2c(c1C)c(=O)[nH]n2C` | 27.95 |
| `Cc1csc2c(C3CCCN(C(=O)CCCn4cncn4)C3)nc(C)n12` (stereo unspecified) | 6.667 |
| `O=C(NC[C@H]1OC[C@@H](NC2CCNCC2)[C@@H]1O)C1CCCC1` | 2.373 |
| `CCc1cnc(CN2CCCC(c3cc(C)[nH]n3)C2)o1` (stereo unspecified) | 9.03 |
| `CC(C(N)=O)N1CCN(c2ncc(Cl)cn2)CC1` (stereo unspecified) | 15.92 |
| `O=C(NC1CCN(c2ncccn2)CC1)c1sccc1C1CC1` | 16.94 |
| `COCc1nc(N(C)CCSc2ccccc2)c2cnn(C)c2n1` | 1.818 |
| `O=C(CCc1ccccc1)C1CCCN(C(=O)c2cncc(Cl)c2)C1` (stereo unspecified) | 13.91 |
| `CN1C(=O)CC(C(=O)O)C12CCN(c1ccc3cccc(Cl)c3n1)CC2` (stereo unspecified) | 6.65 |
| `CCOc1ncccc1CNS(=O)(=O)c1ccc2c(c1)CCC2` | 4.91 |
| `Cc1c[nH]nc1C1CCCCN1C(=O)CCn1nccc1C` (stereo unspecified) | 3.529 |
| `COc1ccccc1N1CCC(CNS(=O)(=O)c2c(C)nn(C)c2C)C1` (stereo unspecified) | 8.383 |
| `Cn1cccc1C(CNC(=O)COc1ccc(Cl)cc1Cl)N1CCCC1` (stereo unspecified) | 10.07 |
| `CCc1cccc(NS(=O)(=O)c2cc3c(c(C(=O)O)c2)OCCO3)c1` | 10.42 |
| `CN(Cc1cncnc1)[C@H]1CN(Cc2ccco2)[C@@H]2CCCO[C@@H]21` | 21.98 |
| `O=C(NCCNC(=O)C1Cc2cc(F)ccc2O1)C1CCCCC1` (stereo unspecified) | 6.494 |
| `Cc1cnn(C2CN(CC(O)c3ccc(F)cc3)C2)c1` (stereo unspecified) | 16.59 |
| `Cc1nn(C)c2c(N3CCSCC3)nc(C3CC3)nc12` | 7.434 |
| `C[S+]([O-])c1nncn1CCCc1ccc(Cl)cc1` (stereo unspecified) | 3.472 |
| `CN(C)CC(=O)N1Cc2nc(C(=O)NCc3ccncc3)oc2C1` | 12.97 |
| `CC(=O)N1CC[C@H]2C(=O)N(c3ccsc3)CCO[C@H]2C1` | 9.273 |
| `CN(Cc1ccn[nH]1)Cc1c[nH]nc1-c1ccc(F)cc1` | -1.818 |
| `CN1C(=O)CO[C@H](c2ccc(NC(=O)c3cccnc3)cc2)[C@H]1CO` | 7.119 |
| `Cc1nc2ccccn2c1CC(=O)N[C@@H]1CC[C@@H](N2CCCC2)[C@@H]1O` | 16.08 |
| `c1ccc(Cc2nnc(CN3CCCC3Cn3cccn3)o2)cc1` (stereo unspecified) | 8.333 |
| `CCCN(CCO)C(=O)c1cc(COc2ccc3c(c2)CCCC3)on1` | -1.977 |
| `COc1cccc(C2CCCN2Cc2nnnn2C2CC2)c1` (stereo unspecified) | 8.215 |
| `NC(=O)c1ccc(CN2C(=O)C3(CCNCC3)Nc3ccccc32)cc1` | -2.5 |
| `CN1CCC(c2cccc(Cc3ccc(F)cc3)n2)CC1` | 13.36 |

6 of the entries, repeated:

Compound,Inhibition
CN1CCC(c2cccc(Cc3ccc(F)cc3)n2)CC1,13.36
CN(Cc1cncnc1)[C@H]1CN(Cc2ccco2)[C@@H]2CCCO[C@@H]21,21.98
CCCn1nnnc1CSCc1cn2c(C)cccc2n1,11.24
CCOc1ncccc1CNS(=O)(=O)c1ccc2c(c1)CCC2,4.91
COCc1nn(CC2CC2)c2c1CN(Cc1cncn1C)CC2,6.667
Cc1nc(CN2CCCC(NCc3ccc(Cl)s3)C2)no1 (stereo unspecified),16.24

Data taken from ChEMBL document CHEMBL3988442, “University of Dundee, Small-Polar-MMV Screening Library” (2021).